The nature of the data set: peptide synthesis. As to conditions: for conjugation yield: conjugation step; for step yield: late stage modification step.

From patent US9345781B2 (priority 2009, dated 2016) come the findings set out here.

Take “Fmoc-SP94-Mal-(2-(3-(2,5-dioxo-2,5-dihydro-1H-pyrrol-1-yl)propanamido)-2-amino(Fl6-G5-cis-aconityl-amino PEG-)-(polyethylene glycol)ethyl)carbamate”: the conjugation yield is 85% yield.

“Fmoc-SP94-Mal-tert-butyl(2-(3-(2,5-dioxo-2,5-dihydro-1H-pyrrol-1-yl)propanamido)(polyethylene glycol)ethyl)carbamate” came in with a conjugation yield of 80% yield. As for “Fmoc-SP94-Mal-(2-(3-(2,5-dioxo-2,5-dihydro-1H-pyrrol-1-yl)propanamido)-2-amino(FT-G5-NHAc-cis-aconityl-amino PEG-)-(polyethylene glycol)ethyl)carbamate”, the step yield is given as 80% yield.

For the substance “Fmoc-SP94-Mal-(2-(3-(2,5-dioxo-2,5-dihydro-1H-pyrrol-1-yl)propanamido)-2-amino(cis-aconityl-amino PEG-)-(polyethylene glycol)ethyl)carbamate”, the step yield is given as 65% yield.

In turn, “Fmoc-SP94-Mal-(2-(3-(2,5-dioxo-2,5-dihydro-1H-pyrrol-1-yl)propanamido)(polyethylene glycol)ethyl)carbamate” returned a step yield of 85% yield. Same read-out and setting: as for “H2N-SP94-Mal-(2-(3-(2,5-dioxo-2,5-dihydro-1H-pyrrol-1-yl)propanamido)-2-amino(FT-G5-NHAc-cis-aconityl-amino PEG-)-(polyethylene glycol)ethyl)carbamate”, the figure is 80% yield.
